{"source": "patent US7351531B2", "about": "“Molecules capable of binding to telomere and the like and method with the use of the same” (Japan Science and Technology Corporation, priority 2001, dated 2008)", "system": "human telomere 22-mer oligonucleotide (quadraplex structure)", "test": "CD spectrometry of human telomere 22-mer oligonucleotide with naphthyridine dimer", "conditions": "0 to 50 μM, 7° C., FIG. 5; listed as naphthyridine dimer", "from_the_text": "The telomere structure change to be caused by the addition of the compound of formula (III) (naphthyridine dimer) to the structure was investigated through CD spectrometry. In FIG. 5, 1 indicates the CD spectrum of human telomere alone, and 2 indicates the CD spectrum of human telomere with naphthyridine dimer added thereto. The vertical axis indicates the angle θ (degree·cm^2·dmol^−1); and the horizontal axis indicates the wavelength (nm).\nA solution of a 22-mer oligonucleotide having the following base sequence: 5′-[…]3′ (SEQ ID NO: 9) in a sodium cacodylate buffer (10 mM, pH 7.0, NaCl 100 mM) was heated at 70° C. for 5 minutes, and then gradually cooled so that the oligomer could form a quadraplex structure (see Structure, 263, 1 (1993)). A varying concentration (0 to 50 μM) of a naphthyridine dimer was added to the resulting solution, and then left at 7° C. for 5 minutes, and the circular dichroic spectrum (CD spectrum) of the sample was measured at that temperature.", "note": "“Also recorded” adds a separate entry of the source.", "data": [{"smiles": "Cc1ccc2ccc(NC(=O)CCNCCC(=O)Nc3ccc4ccc(C)nc4n3)nc2n1", "note": "[compound of formula (III), dinaphthyridinamide]", "values": [{"measurement": "change of CD spectrum of human telomere on addition", "result": "significantly changes the spectral pattern; also recorded: greatly varied"}]}]}
